Laboratory results: paper doi:10.1101/2025.11.15.688598
Results are given in words; binding and its absence hold for the method and conditions named. Some binding calls cover weakened binding; strength is not graded here.

By UniProt entry, the sequences of proteins in these tests, tags left out.
UniProt P40938: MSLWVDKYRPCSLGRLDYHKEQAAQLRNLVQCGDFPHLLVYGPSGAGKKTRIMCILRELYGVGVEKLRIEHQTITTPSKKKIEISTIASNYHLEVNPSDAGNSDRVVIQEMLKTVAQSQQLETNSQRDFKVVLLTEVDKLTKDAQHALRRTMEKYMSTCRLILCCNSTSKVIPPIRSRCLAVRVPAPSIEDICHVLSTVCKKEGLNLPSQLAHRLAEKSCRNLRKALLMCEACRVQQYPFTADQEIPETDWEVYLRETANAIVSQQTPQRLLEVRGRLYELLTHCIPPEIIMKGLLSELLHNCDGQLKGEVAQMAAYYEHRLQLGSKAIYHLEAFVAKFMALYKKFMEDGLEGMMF
UniProt P40937: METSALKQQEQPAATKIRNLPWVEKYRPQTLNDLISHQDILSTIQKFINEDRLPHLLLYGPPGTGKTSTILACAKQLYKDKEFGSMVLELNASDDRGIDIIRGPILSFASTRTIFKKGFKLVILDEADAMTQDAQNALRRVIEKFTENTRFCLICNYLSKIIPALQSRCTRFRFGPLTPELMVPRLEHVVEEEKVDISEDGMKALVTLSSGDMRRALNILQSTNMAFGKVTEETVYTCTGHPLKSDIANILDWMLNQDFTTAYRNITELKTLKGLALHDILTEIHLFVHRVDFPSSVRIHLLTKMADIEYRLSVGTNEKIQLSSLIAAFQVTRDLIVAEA
UniProt P35250: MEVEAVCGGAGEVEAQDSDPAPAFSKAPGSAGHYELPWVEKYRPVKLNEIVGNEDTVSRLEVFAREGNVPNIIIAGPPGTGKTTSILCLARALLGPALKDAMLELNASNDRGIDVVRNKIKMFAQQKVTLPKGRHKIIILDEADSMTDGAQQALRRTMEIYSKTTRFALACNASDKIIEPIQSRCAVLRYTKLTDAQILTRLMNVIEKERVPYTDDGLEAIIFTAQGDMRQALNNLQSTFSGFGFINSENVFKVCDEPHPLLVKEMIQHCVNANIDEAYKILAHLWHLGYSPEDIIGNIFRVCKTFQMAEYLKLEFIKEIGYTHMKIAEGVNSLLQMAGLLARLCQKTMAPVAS

B1: N-terminus truncated RFC1 (ΔN-RFC1-Strep II) (domain or fragment, UniProt P35251 551-1148)
chain: KSLDFKEQVAEETSGDSKARNLADDSSENKVENLLWVDKYKPTSLKTIIGQQGDQSCANKLLRWLRNWQKSSSEDKKHAAKFGKFSGKDDGSSFKAALLSGPPGVGKTTTASLVCQELGYSYVELNASDTRSKSSLKAIVAESLNNTSIKGFYSNGAASSVSTKHALIMDEVDGMAGNEDRGGIQELIGLIKHTKIPIICMCNDRNHPKIRSLVHYCFDLRFQRPRVEQIKGAMMSIAFKEGLKIPPPAMNEIILGANQDIRQVLHNLSMWCARSKALTYDQAKADSHRAKKDIKMGPFDVARKVFAAGEETAHMSLVDKSDLFFHDYSIAPLFVQENYIHVKPVAAGGDMKKHLMLLSRAADSICDGDLVDSQIRSKQNWSLLPAQAIYASVLPGELMRGYMTQFPTFPSWLGKHSSTGKHDRIVQDLALHMSLRTYSSKRTVNMDYLSLLRDALVQPLTSQGVDGVQDVVALMDTYYLMKEDFENIMEISSWGGKPSPFSKLDPKVKAAFTRAYNKEAHLTPYSLQAIKASRHSTSPSLDSEYNEELNEDDSQSDEKDQDAIETDAMIKKKTKSSKPSKPEKDKEPRKGKGKSSKK

biological target: Replication factor C subunit 3 (RFC3) with N-terminal 6xHis tag (human) (UniProt P40938); test: co-purification

binding, binds:
Replication factor C subunit 5 (RFC5) (from UniProt P40937 1-340)
Replication factor C subunit 2 (RFC2) (from UniProt P35250 1-354)
B1
